The results in this text go back to the supplement of paper PMC7125110.

Sequences and labels used below:
B1: glmS ribozyme (parent)
chain: AUAAAAGCGCCAGAACUACAGAAAUGUAGUUGACGAGGAGGAGGUUUAUCGAAUUUUCGGCGGAUGCCUCCAAA

± gives the standard error. Many of these values have a large error. A value given as a limit tells only on which side of the number the result lay.

One data set covers variants of B1. In words: kcat; higher = faster cleavage; RNA array. The settings on record: with glucosamine-6-phosphate. In short, it runs like this:
(§1)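 The measurements used barcoded ribozyme variants on sequenced MiSeq chips, transcribed in situ by E. coli RNA polymerase and tracked at 37 °C with a hybridised Cy3 probe. Glucosamine-6-phosphate, 40 μM to 10 mM in HEPES/KCl/Mg(OAc)2 buffer, was flowed in while tiles were imaged over ~14 h. Baseline-normalised signals, also normalised to non-cleaving reference variants, gave per-tile medians that were fit to one- or two-exponential decays for kobs. kcat and KM resulted from weighted Michaelis–Menten fits across concentrations.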
In the case of A14G G40A G41U G66A, the kcat (usually the maximal rate divided by the concentration of active sites) amounted to 0.000815 ± 0.00014 s⁻¹.

Consider U57C C68U, for which the kcat came out at 6e-05 ± 5.6e-07 s⁻¹.

With C34U G38U, the kcat was less than 1e-05 s⁻¹.

Regarding C10G C67G, the kcat was 1.02e-05 ± 7.4e-06 s⁻¹.

For the variant C16G U65G, the kcat was 0.00228 ± 0.0011 s⁻¹.

Turning to U55G G59C, the kcat worked out at 1.2e-05 ± 2.5e-06 s⁻¹.

In the case of C10G U56G G59U, the kcat is 4.81e-05 ± 4.4e-05 s⁻¹.

On to U49A C70A, for which the kcat was 1.28e-05 ± 6.6e-06 s⁻¹.

As for G41A A48G, the kcat is less than 1e-05 s⁻¹.

Take G29U A64U: the catalytic constant (kcat) was found to be 1.06e-05 ± 2.5e-07 s⁻¹.

In the case of A6C A39G, the kcat worked out at 6.38e-05 ± 7.8e-07 s⁻¹.

In the case of G62U C71U, the kcat was less than 1e-05 s⁻¹.

For C16A U57C, the kcat was less than 1e-05 s⁻¹.

In the case of A53U C71U, the kcat turned out to be 0.04 ± 0.023 s⁻¹.

With G13U G43A, the kcat was less than 1e-05 s⁻¹.

For the variant U57A C71U, the catalytic constant (kcat) worked out at 0.000912 ± 0.00051 s⁻¹.

Turning to A15G G32A, the catalytic constant (kcat) amounted to 0.00262 ± 0.0015 s⁻¹.

Take G13C G32C U47C: the kcat was 2.34e-05 ± 1.7e-05 s⁻¹.

In the case of A15G U57A, the kcat worked out at 0.000632 ± 0.00046 s⁻¹.

Consider G32C U69A, for which the kcat came to 2.41e-05 ± 1.8e-05 s⁻¹.

For C10A U69G, the kcat was found to be 4.22e-05 ± 3.6e-05 s⁻¹.

As to C50A C61U C70U, the turnover number (kcat) was 3.88e-05 ± 1.2e-05 s⁻¹.

As to A52C U57G U69G, the kcat is 3.86e-05 ± 2.3e-05 s⁻¹.

Regarding A14U C70U, the kcat was 0.000847 ± 0.00056 s⁻¹.

A12U U56A: the kcat was determined as 0.0897 ± 0.049 s⁻¹.

Variants of B1 are the subject of the next data set. The data set can be described thus: KM; higher = weaker cofactor use; RNA array. The settings on record: with glucosamine-6-phosphate. In short, it runs like this: as §1
A14G G40A G41U G66A: the KM (in general, the concentration of substrate that gives half-maximal velocity) came out at 2850 ± 980 µM.

In the case of G13C U31C, the Michaelis constant (KM) was determined as 3460 ± 1200 µM.

Turning to G13A G32U, the KM was 3170 ± 600 µM.

On to C8G A12G, for which the KM was 32.5 ± 28 µM.

As to C16A G63A, the KM amounted to 14.8 ± 14 µM.

Consider C16A U54C, for which the KM worked out at 2480 ± 1300 µM.

Take U57C C68U: the Michaelis constant (KM) was 1210 ± 64 µM.

As to U56G C71A, the Michaelis-Menten constant (KM) turned out to be 422 ± 340 µM.

As for A42U U54C, the KM is 1140 ± 660 µM.

Turning to C16G U65G, the KM came out at 7750 ± 4900 µM.

Consider C16U A42C, for which the KM is 253 ± 130 µM.

Consider C61G C71U, for which the KM was 27.5 ± 16 µM.

Regarding A48G C68U, the KM is 28600 ± 11000 µM.

In the case of U54A A64U, the KM stood at 606 ± 450 µM.

For C16A U69C, the Michaelis constant (KM) came to 317 ± 290 µM.

Take G40A G59U: the KM came out at 17700 ± 4800 µM.

For the variant A52C U54G G63A, the KM is 135 ± 120 µM.

With U45A U54G, the KM was found to be 477 ± 290 µM.

In the case of A12U C50A, the Michaelis constant (KM) was 1660 ± 130 µM.

For the variant G40U U57A, the KM came to 16800 ± 2900 µM.

With G29U A64U, the KM is 4920 ± 300 µM.

As for G29U A64G, the KM was 1770 ± 1400 µM.

As for A6C A39G, the KM amounted to 439 ± 33 µM.

As to A42U U46A, the KM is 4410 ± 1900 µM.

In the case of A14G G37A U54A, the Michaelis-Menten constant (KM) was 4940 ± 3400 µM.

For A53U U55A, the KM came to 3780 ± 2200 µM.

In the case of U30G U45C, the KM is 1300 ± 900 µM.

Turning to G51U C71U, the KM amounted to 20.8 ± 18 µM.

Consider A53U C71U, for which the KM is 3500 ± 2300 µM.

For U46C C58A, the KM was 14200 ± 4400 µM.

Take C10U U47C: the Michaelis constant (KM) amounted to 98.5 ± 57 µM.

A48U U55A U56C: the KM was 543 ± 380 µM.

With A52U C67A, the Michaelis-Menten constant (KM) came out at 1480 ± 240 µM.

Turning to A42G U56G, the KM stood at 925 ± 600 µM.

With U45A U65C, the KM was 1770 ± 290 µM.

With G44U U56C, the KM came out at 4890 ± 1500 µM.

With C11A C34G G60U A64G, the KM amounted to 65.6 ± 55 µM.

Consider A36G C70U, for which the Michaelis-Menten constant (KM) came out at 482 ± 360 µM.

As for U46G C70A, the KM was determined as 354 ± 280 µM.

Turning to U57A C71U, the KM amounted to 13700 ± 9500 µM.

For the variant U47A C58G, the KM stood at 1740 ± 440 µM.

As for U31C G32A C58A U65G, the KM was 2320 ± 190 µM.

Take U55A A64C: the Michaelis constant (KM) stood at 2210 ± 1300 µM.

In the case of A15G G32A, the KM stood at 2650 ± 2000 µM.

As for A15G G32C, the KM stood at 8170 ± 3300 µM.

With C11U U47C, the KM is 1150 ± 290 µM.

Turning to U31A C71G, the KM was determined as 256 ± 210 µM.

Take C16U C61G: the KM is 322 ± 170 µM.

On to C16U C61U, for which the KM was 480 ± 260 µM.

For U47G C67G, the Michaelis constant (KM) turned out to be 998 ± 620 µM.

U45A A48G: the KM was found to be 1450 ± 820 µM.

As for G63U A64C G66C, the KM amounted to 29 ± 23 µM.

Turning to A33U U56A, the Michaelis constant (KM) stood at 7840 ± 7800 µM.

Regarding U45A U55C, the KM stood at 733 ± 530 µM.

As for U54G A64U, the KM stood at 1560 ± 780 µM.

Take U56C U65G: the KM was 2740 ± 1400 µM.

In the case of G59A A64G, the KM stood at 1560 ± 1000 µM.

Take A12U U56A: the KM was determined as 3680 ± 2300 µM.

The variants in another data set derive from B1. The data set can be described thus: self-cleavage kobs at 40 uM GlcN6P; higher = faster cleavage; RNA array. The settings on record: with glucosamine-6-phosphate. In short, it runs like this: as §1
For A14G G40A G41U G66A, the “self-cleavage kobs at 40 uM GlcN6P” value was 3.3e-05 ± 2.2e-05 s⁻¹.

As for C16G U65G, the “self-cleavage kobs at 40 uM GlcN6P” value was 3.31e-05 ± 2.9e-05 s⁻¹.

Regarding C16A U69C, the “self-cleavage kobs at 40 uM GlcN6P” value is 2.52e-05 ± 2.1e-05 s⁻¹.

The variants in a further data set derive from B1. In words: self-cleavage kobs at 640 uM GlcN6P; higher = faster cleavage; RNA array. The settings on record: with glucosamine-6-phosphate. In short, it runs like this:
as §1
U57C C68U: the “self-cleavage kobs at 640 uM GlcN6P” value was 2.13e-05 ± 1.4e-05 s⁻¹.

With C10G C67G, the “self-cleavage kobs at 640 uM GlcN6P” value worked out at 0.0001 ± 5.8e-05 s⁻¹.

Regarding A6C A39G, the “self-cleavage kobs at 640 uM GlcN6P” value was determined as 3.8e-05 ± 2e-05 s⁻¹.

As for C16A U57C, the “self-cleavage kobs at 640 uM GlcN6P” value was 0.00193 ± 0.0019 s⁻¹.

As for A42U U46A, the “self-cleavage kobs at 640 uM GlcN6P” value amounted to 1.51e-05 ± 8.9e-06 s⁻¹.

On to A15G G32C, for which the “self-cleavage kobs at 640 uM GlcN6P” value worked out at 4.12e-05 ± 2.6e-05 s⁻¹.

On to C50A C61U C70U, for which the “self-cleavage kobs at 640 uM GlcN6P” value was 4.21e-05 ± 2.8e-05 s⁻¹.

Another data set covers variants of B1. In words: self-cleavage kobs at 10000 uM GlcN6P; higher = faster cleavage; RNA array. The settings on record: with glucosamine-6-phosphate. In short, it runs like this: as §1
Take C10G U56G G59U: the “self-cleavage kobs at 10000 uM GlcN6P” value is 2.71e-05 ± 1.9e-05 s⁻¹.

On to A33U U56A, for which the “self-cleavage kobs at 10000 uM GlcN6P” value came to 1.96e-05 ± 1.1e-05 s⁻¹.

Variants of B1 are the subject of another data set. In words: self-cleavage kobs at 160 uM GlcN6P; higher = faster cleavage; RNA array. The settings on record: with glucosamine-6-phosphate. In short, it runs like this: as §1
Consider C16A U69C, for which the “self-cleavage kobs at 160 uM GlcN6P” value was determined as 2.93e-05 ± 1.9e-05 s⁻¹.

For the variant U45A A48G, the “self-cleavage kobs at 160 uM GlcN6P” value worked out at 2.71e-05 ± 1.5e-05 s⁻¹.

As to U54G A64U, the “self-cleavage kobs at 160 uM GlcN6P” value is less than 1e-05 s⁻¹.

In the case of U56C U65G, the “self-cleavage kobs at 160 uM GlcN6P” value is 4.26e-05 ± 2.6e-05 s⁻¹.

The variants in the next data set derive from B1. In words: self-cleavage kobs at 2500 uM GlcN6P; higher = faster cleavage; RNA array. The settings on record: with glucosamine-6-phosphate. In short, it runs like this:
as §1
As for U31C G32A C58A U65G, the “self-cleavage kobs at 2500 uM GlcN6P” value turned out to be 2.4e-05 ± 1.9e-05 s⁻¹.

With G13C G32C U47C, the “self-cleavage kobs at 2500 uM GlcN6P” value amounted to 6.87e-05 ± 3.4e-05 s⁻¹.

For the variant C50A C61U C70U, the “self-cleavage kobs at 2500 uM GlcN6P” value amounted to 3.86e-05 ± 3e-05 s⁻¹.
